The exact form of at least one protein or probe is not confirmed. For part of these data: Weaker means in comparison with the reference protein, sequence or condition of that experiment.
Legend:
TRF2ΔB (human) = TRF2ΔB (human) (UniProt Q15554); assay: fluorescence anisotropy; settings: affinity similar to TRF2 in presence of Rap1; 3'-C6 aminoalkyl linker on one strand; FA: 50 mM NaCl, 50 mM sodium phosphate pH 7.0, 25 °C, 7.5 nM DNA; recombinant protein; label: Alexa Fluor 488 at 3' end of one strand
TRF1 = assay: fluorescence anisotropy; settings: 3'-C6 aminoalkyl linker on one strand, FA: 50 mM NaCl, 50 mM sodium phosphate pH 7.0, 25 °C, 7.5 nM DNA, recombinant protein, label: Alexa Fluor 488 at 3' end of one strand

Sequences of proteins named here, by UniProt entry; tags and fusion partners are left off. Residues count along the entry.
UniProt Q15554, 87-542, stated change not applied: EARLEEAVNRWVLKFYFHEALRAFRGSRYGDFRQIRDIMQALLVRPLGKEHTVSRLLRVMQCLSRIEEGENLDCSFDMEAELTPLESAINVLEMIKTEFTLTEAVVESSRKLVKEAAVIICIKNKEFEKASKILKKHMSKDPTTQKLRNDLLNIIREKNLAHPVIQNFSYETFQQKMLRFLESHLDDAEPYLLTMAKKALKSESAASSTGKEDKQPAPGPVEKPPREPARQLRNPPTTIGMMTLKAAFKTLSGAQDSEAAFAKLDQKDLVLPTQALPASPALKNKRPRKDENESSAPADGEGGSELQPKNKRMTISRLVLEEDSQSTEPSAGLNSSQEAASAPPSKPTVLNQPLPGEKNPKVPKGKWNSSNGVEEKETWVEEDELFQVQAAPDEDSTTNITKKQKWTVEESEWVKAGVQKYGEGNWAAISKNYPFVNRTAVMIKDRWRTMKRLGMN

Q: Does GTTAGGGTTAGGGTTAG (double strand) [R2] bind (TRF2ΔB (human))?
A: Result: binds more weakly

Q: Does GTTAGGGTTAGGGTTAG (double strand) [R2] bind (TRF1; with Rap1 (no complex with TRF1), no significant Kd change)?
A: Result: binds

Q: Does GTTAGGGTTAGGGTTAG (double strand) [R2] bind (TRF1; without Rap1)?
A: Result: binds
